PubChem BioAssay AID1508597, Cure First | 2020
Assay: 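Genes whose silencing sensitises or protects ovarian cancer cells against rucaparib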 (primary screen). System: human ovarian carcinoma lines grown from tumours: OCI-P5x (papillary serous) and OCI-C5x (clear cell). Knock-down reagent: siRNA pool against human genes, 1.25 pmol siRNA per well. Timing: 72 h or 96 h, depending on the cell culture. Treatment: rucaparib 20 µM (about IC30) or vehicle, present until read-out. Rucaparib or vehicle: Vehicle. Cell line: OCI-P5x (serous). Measurement: 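ATP luminescence measured at 72 or 96 h according to the culture, then normalised and expressed as percent viability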. Reading the numbers: viability, normalised: higher = more viable cells remaining. Hit rule: 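a well counts as a hit if its normalised viability is under 80 percent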. Calls: active = viability under 80%; inactive = viability 80% or more.
Shown is an unselected part of the about 2,100 reagents, in one setting of the screen. 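Calls flag viability under 80% in either arm, not effects specific to rucaparib; the reference for percent is not stated.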 Some reagents were tested in more than one well and are listed for each. Reagent sequences are not shown. Not given: the 100% reference.

With PDE6H (phosphodiesterase 6H), technical replicate 1, how do the results read?
viability, normalised (%): 79.9; outcome: active

For PDE6H (phosphodiesterase 6H), technical replicate 2, what does the deposit list?
viability, normalised (%): 78; outcome: active

How did the screen score PDE6H (phosphodiesterase 6H), technical replicate 3?
viability, normalised (%): 103; outcome: inactive

For PRKACG (protein kinase cAMP-activated catalytic subunit gamma), technical replicate 1, how do the results read?
viability, normalised (%): 115; outcome: inactive

For PRKACG (protein kinase cAMP-activated catalytic subunit gamma), technical replicate 2, how do the results read?
viability, normalised (%): 119; outcome: inactive

With PRKACG (protein kinase cAMP-activated catalytic subunit gamma), technical replicate 3, how do the results read?
viability, normalised (%): 96.1; outcome: inactive

For ALPK1 (alpha kinase 1), technical replicate 1, what was measured?
viability, normalised (%): 66; outcome: active

Which result is listed for ALPK1 (alpha kinase 1), technical replicate 1?
viability, normalised (%): 77.3; outcome: active

What is on record for ALPK1 (alpha kinase 1), technical replicate 2?
viability, normalised (%): 64.2; outcome: active

With ALPK1 (alpha kinase 1), technical replicate 2, what was measured?
viability, normalised (%): 72.4; outcome: active

Which result is listed for ALPK1 (alpha kinase 1), technical replicate 3?
viability, normalised (%): 69.7; outcome: active

With ALPK1 (alpha kinase 1), technical replicate 3, how do the results read?
viability, normalised (%): 84.8; outcome: inactive

With FANCF (FA complementation group F), technical replicate 1, what does the deposit list?
viability, normalised (%): 70.4; outcome: active

With FANCF (FA complementation group F), technical replicate 2, what was measured?
viability, normalised (%): 65.5; outcome: active

What did the screen give for FANCF (FA complementation group F), technical replicate 3?
viability, normalised (%): 52.4; outcome: active

How did the screen score MED11 (mediator complex subunit 11), technical replicate 1?
viability, normalised (%): 61; outcome: active

What is on record for MED11 (mediator complex subunit 11), technical replicate 2?
viability, normalised (%): 55.7; outcome: active

For MED11 (mediator complex subunit 11), technical replicate 3, what does the deposit list?
viability, normalised (%): 69.7; outcome: active

For WNK2 (WNK lysine deficient protein kinase 2), technical replicate 1, what was measured?
viability, normalised (%): 59.5; outcome: active

For WNK2 (WNK lysine deficient protein kinase 2), technical replicate 2, what was measured?
viability, normalised (%): 54.4; outcome: active

With WNK2 (WNK lysine deficient protein kinase 2), technical replicate 3, what does the deposit list?
viability, normalised (%): 67; outcome: active

For PLCD4 (phospholipase C delta 4), technical replicate 1, what does the deposit list?
viability, normalised (%): 66.2; outcome: active

For PLCD4 (phospholipase C delta 4), technical replicate 2, how do the results read?
viability, normalised (%): 66.9; outcome: active

With PLCD4 (phospholipase C delta 4), technical replicate 3, what was measured?
viability, normalised (%): 66.2; outcome: active

What did the screen give for FBXO5 (F-box protein 5), technical replicate 1?
viability, normalised (%): 61.1; outcome: active

For FBXO5 (F-box protein 5), technical replicate 2, what does the deposit list?
viability, normalised (%): 60; outcome: active

What did the screen give for FBXO5 (F-box protein 5), technical replicate 3?
viability, normalised (%): 65.2; outcome: active

6 entries from above, ordered by “viability, normalised (%)”, lowest first:
WNK2 (WNK lysine deficient protein kinase 2), technical replicate 2 — viability, normalised (%) = 54.4; outcome = active
MED11 (mediator complex subunit 11), technical replicate 2 — viability, normalised (%) = 55.7; outcome = active
WNK2 (WNK lysine deficient protein kinase 2), technical replicate 1 — viability, normalised (%) = 59.5; outcome = active
PLCD4 (phospholipase C delta 4), technical replicate 1 — viability, normalised (%) = 66.2; outcome = active
WNK2 (WNK lysine deficient protein kinase 2), technical replicate 3 — viability, normalised (%) = 67; outcome = active
MED11 (mediator complex subunit 11), technical replicate 3 — viability, normalised (%) = 69.7; outcome = active

Further reagents follow.
What did the screen give for SOX6 (SRY-box transcription factor 6), technical replicate 1?
viability, normalised (%): 35.3; outcome: active

How did the screen score SOX6 (SRY-box transcription factor 6), technical replicate 2?
viability, normalised (%): 59.7; outcome: active

What is on record for SOX6 (SRY-box transcription factor 6), technical replicate 3?
viability, normalised (%): 38.9; outcome: active

What did the screen give for TRPM7, technical replicate 1?
viability, normalised (%): 90; outcome: inactive

For TRPM7, technical replicate 2, what does the deposit list?
viability, normalised (%): 68.3; outcome: active

How did the screen score TRPM7, technical replicate 3?
viability, normalised (%): 78; outcome: active

For BACC1 (BPTF associated chromatin complex component 1), technical replicate 1, how do the results read?
viability, normalised (%): 85.6; outcome: inactive

Which result is listed for BACC1 (BPTF associated chromatin complex component 1), technical replicate 1?
viability, normalised (%): 61; outcome: active

How did the screen score BACC1 (BPTF associated chromatin complex component 1), technical replicate 2?
viability, normalised (%): 55.3; outcome: active

Which result is listed for BACC1 (BPTF associated chromatin complex component 1), technical replicate 2?
viability, normalised (%): 77.7; outcome: active

How did the screen score BACC1 (BPTF associated chromatin complex component 1), technical replicate 3?
viability, normalised (%): 97.6; outcome: inactive

With BACC1 (BPTF associated chromatin complex component 1), technical replicate 3, what was measured?
viability, normalised (%): 63.4; outcome: active

What did the screen give for STING1 (stimulator of interferon response cGAMP interactor 1), technical replicate 1?
viability, normalised (%): 67.1; outcome: active

How did the screen score STING1 (stimulator of interferon response cGAMP interactor 1), technical replicate 2?
viability, normalised (%): 61.2; outcome: active

With STING1 (stimulator of interferon response cGAMP interactor 1), technical replicate 3, what does the deposit list?
viability, normalised (%): 54.8; outcome: active
